Data from the supplement of paper PMC10849652.
The list shows a part of the results.

The chains behind the UniProt entries cited, without tags or fusion partners. Where a name states a change or a piece, a line headed by the entry shows the natural chain unless it says otherwise.
UniProt Q9P0I2: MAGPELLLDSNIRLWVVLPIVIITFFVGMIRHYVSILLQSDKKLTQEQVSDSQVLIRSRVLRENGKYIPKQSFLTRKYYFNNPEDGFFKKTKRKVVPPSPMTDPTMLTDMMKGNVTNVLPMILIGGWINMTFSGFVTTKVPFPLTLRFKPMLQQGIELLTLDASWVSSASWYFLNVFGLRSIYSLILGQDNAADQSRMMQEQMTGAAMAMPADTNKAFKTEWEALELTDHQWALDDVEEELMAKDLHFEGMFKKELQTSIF
UniProt Q13542: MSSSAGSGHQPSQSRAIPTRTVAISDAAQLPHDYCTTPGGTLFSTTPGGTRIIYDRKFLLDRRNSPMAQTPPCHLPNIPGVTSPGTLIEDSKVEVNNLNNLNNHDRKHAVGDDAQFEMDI
UniProt Q9H0I2: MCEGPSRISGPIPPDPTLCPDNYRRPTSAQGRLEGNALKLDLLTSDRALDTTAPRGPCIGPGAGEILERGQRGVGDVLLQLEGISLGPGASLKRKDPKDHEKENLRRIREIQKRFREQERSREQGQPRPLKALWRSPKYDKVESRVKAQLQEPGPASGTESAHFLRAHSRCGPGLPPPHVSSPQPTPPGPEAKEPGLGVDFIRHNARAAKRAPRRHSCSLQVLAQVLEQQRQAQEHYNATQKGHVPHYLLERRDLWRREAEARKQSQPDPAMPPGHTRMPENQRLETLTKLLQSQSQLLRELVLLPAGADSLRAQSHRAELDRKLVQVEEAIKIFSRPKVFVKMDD
UniProt Q9Y6B2: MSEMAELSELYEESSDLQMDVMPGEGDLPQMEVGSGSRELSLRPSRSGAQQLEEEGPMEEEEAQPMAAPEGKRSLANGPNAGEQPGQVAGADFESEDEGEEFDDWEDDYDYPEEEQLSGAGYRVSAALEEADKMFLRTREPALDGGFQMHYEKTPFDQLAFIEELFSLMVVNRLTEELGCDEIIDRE
UniProt P26378: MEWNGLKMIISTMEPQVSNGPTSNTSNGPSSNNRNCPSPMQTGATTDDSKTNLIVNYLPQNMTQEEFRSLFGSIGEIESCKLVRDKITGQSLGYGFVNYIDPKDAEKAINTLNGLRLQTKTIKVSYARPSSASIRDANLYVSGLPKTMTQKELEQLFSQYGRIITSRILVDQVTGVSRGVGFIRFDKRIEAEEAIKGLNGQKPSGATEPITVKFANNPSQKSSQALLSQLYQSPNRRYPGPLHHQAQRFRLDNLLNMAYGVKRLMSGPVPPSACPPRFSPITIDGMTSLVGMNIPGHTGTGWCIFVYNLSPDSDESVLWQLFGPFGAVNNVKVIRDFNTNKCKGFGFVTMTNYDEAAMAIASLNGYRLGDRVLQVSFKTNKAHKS
UniProt Q9NQZ7: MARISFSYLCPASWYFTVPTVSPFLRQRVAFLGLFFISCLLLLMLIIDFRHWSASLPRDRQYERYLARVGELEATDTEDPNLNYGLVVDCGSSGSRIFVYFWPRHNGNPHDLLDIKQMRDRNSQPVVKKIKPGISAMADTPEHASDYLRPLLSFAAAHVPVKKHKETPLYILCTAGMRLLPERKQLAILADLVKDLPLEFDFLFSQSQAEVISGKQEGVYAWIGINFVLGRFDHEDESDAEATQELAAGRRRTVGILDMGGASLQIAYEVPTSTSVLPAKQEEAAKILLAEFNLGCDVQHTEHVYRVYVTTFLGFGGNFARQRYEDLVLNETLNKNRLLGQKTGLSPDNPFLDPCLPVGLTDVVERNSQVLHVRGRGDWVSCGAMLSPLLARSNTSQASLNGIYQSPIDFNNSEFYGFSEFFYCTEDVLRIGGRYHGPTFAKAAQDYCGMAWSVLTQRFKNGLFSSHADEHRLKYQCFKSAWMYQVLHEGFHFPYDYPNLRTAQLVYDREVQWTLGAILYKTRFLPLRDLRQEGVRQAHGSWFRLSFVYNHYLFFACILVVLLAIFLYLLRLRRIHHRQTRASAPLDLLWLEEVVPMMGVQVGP
UniProt Q9GZV4: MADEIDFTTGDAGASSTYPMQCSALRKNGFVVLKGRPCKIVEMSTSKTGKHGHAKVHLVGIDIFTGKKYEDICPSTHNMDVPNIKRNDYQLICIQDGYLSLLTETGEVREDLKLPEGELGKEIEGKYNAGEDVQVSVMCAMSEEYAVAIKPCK
UniProt P29692: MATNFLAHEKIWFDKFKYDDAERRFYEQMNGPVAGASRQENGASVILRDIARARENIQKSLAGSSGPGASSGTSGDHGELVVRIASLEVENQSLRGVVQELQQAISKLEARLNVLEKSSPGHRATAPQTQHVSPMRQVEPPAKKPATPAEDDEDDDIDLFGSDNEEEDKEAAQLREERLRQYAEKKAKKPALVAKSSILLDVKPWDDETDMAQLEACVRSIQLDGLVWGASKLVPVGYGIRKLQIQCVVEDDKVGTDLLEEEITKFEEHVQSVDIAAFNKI
UniProt Q96C92: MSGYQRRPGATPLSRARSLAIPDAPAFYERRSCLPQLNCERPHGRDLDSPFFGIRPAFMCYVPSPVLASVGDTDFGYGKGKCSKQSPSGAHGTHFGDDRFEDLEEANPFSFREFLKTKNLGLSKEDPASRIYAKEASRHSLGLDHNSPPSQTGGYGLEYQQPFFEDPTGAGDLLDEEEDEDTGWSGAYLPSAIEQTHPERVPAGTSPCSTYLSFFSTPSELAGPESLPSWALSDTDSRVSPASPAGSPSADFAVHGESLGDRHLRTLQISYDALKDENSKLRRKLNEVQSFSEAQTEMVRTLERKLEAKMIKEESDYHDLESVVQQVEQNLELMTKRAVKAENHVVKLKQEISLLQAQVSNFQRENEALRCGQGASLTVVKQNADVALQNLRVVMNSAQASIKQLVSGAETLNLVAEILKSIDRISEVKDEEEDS
UniProt Q6ZTU2, whole entry, looked up: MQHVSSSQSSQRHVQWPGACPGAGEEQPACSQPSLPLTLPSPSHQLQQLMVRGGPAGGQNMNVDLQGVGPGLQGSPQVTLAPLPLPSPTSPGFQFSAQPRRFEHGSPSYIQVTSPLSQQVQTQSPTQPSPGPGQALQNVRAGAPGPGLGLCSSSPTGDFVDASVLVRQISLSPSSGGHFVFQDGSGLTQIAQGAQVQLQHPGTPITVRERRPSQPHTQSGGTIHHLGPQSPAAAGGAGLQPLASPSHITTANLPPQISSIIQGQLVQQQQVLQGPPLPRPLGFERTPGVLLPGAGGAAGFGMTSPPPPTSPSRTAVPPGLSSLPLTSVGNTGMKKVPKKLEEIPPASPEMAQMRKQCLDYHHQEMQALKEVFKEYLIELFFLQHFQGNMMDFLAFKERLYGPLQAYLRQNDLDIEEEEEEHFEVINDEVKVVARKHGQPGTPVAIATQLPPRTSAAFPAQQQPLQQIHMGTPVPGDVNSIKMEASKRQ
UniProt Q14156: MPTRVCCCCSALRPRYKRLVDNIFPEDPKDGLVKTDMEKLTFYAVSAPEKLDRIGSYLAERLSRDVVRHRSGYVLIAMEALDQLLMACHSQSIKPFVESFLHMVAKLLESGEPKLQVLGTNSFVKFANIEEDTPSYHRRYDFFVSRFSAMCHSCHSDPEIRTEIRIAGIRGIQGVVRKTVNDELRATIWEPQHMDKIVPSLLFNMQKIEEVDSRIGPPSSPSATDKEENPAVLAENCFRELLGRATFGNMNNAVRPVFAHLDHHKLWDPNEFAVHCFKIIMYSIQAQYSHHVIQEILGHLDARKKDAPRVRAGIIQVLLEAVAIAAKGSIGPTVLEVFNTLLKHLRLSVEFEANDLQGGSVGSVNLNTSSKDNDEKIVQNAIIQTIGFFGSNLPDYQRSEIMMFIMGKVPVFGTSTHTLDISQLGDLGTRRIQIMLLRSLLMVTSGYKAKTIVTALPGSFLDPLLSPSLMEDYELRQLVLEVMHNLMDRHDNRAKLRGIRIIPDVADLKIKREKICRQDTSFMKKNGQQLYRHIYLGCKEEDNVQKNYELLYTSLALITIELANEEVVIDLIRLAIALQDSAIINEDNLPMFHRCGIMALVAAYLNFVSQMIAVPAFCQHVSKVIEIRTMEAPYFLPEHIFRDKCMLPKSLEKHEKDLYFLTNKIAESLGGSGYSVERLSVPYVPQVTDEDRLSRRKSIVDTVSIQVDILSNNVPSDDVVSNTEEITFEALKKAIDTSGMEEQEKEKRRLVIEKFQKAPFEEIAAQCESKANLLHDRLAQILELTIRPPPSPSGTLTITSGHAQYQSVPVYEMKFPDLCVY
UniProt A1L3X0: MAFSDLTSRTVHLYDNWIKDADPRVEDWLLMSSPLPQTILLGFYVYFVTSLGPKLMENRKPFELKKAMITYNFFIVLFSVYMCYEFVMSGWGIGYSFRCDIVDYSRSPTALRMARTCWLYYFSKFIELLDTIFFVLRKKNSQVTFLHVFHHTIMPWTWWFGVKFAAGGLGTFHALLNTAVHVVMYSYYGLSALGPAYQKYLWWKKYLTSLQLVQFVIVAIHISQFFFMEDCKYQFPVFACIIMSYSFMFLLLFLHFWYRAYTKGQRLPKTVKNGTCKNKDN
UniProt P11171, whole entry, looked up: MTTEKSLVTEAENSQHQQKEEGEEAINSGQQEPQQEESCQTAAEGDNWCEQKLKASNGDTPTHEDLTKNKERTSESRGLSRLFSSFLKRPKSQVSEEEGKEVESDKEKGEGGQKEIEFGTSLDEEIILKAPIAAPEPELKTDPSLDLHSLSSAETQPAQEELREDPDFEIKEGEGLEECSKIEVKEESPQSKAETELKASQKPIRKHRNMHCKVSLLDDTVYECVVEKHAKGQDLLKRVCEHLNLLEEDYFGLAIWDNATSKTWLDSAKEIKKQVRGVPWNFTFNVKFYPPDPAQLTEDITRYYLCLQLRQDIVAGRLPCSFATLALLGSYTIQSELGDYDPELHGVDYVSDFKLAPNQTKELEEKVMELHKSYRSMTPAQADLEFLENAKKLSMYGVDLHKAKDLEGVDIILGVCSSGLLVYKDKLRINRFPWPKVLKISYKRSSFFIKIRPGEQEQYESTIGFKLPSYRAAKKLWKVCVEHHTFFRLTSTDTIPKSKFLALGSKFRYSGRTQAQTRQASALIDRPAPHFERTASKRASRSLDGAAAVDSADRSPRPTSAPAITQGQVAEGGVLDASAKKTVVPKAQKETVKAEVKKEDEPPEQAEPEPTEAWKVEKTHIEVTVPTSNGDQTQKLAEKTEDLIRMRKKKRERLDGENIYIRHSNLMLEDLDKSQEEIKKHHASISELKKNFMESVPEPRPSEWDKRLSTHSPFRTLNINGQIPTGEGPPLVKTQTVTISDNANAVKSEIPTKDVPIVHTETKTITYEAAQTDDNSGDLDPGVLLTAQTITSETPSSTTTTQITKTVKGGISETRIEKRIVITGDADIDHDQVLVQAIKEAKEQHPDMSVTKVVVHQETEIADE
UniProt O00418: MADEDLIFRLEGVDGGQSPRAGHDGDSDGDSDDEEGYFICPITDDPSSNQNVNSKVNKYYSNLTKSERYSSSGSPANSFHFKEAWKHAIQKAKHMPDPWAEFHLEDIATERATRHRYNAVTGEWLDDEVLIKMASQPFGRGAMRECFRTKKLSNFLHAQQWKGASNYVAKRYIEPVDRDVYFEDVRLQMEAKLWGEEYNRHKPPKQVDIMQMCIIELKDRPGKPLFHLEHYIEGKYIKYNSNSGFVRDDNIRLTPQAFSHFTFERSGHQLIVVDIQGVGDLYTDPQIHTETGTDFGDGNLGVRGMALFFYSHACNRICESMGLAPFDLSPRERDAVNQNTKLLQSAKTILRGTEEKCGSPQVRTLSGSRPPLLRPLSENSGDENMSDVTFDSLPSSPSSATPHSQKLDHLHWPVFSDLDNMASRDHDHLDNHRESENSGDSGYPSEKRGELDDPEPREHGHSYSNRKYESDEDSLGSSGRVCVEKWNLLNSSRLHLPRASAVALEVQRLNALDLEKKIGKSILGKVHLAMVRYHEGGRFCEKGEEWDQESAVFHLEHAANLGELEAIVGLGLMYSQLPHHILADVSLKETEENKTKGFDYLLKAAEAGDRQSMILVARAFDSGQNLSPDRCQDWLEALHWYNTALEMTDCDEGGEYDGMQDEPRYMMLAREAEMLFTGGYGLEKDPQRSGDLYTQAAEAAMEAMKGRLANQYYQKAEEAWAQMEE
UniProt Q9Y227: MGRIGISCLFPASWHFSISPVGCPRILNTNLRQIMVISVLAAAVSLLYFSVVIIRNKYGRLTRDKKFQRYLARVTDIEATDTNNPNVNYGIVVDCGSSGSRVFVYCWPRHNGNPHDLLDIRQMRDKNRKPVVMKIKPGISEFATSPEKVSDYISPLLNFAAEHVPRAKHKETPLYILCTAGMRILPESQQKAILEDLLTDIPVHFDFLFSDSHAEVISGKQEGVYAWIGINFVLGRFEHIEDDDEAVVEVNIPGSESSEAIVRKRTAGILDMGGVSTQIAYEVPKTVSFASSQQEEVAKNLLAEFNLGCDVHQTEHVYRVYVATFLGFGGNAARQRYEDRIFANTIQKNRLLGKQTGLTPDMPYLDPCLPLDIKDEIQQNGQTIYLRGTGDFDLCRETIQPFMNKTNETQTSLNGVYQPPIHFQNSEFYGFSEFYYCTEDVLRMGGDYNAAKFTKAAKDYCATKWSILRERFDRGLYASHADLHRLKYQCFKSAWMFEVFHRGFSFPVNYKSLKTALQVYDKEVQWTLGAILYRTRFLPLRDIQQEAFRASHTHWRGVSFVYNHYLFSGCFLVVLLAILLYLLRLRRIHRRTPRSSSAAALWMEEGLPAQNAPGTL

What was measured:
Experiment in all cases: log2 fold change, soluble protein after heating vs DMSO (PISA); higher = thermal stabilisation; K562 cells, 10 uM, 30 min; active = over 0.2 and 3.5 SD of the protein, either way, in both replicates (recomputed)
[1] = compound: C1=CC=C(C=C1)[C@H](COC2=CC3=C(C=C2)NC(=O)N3)NC(=O)C4=CC=CN(C4=O)CC5=CC(=C(C=C5)F)F
Summary of the method: (§1)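 Aliquots of K562 cells (2×10^6 cells/mL) treated with 10 μM compound for 30 min were heated for 3 min over 48°C-58°C. After pooling and extraction in PBS with 0.5% NP-40 at 4°C, soluble protein from a 21,000xg, 90 min spin was quantified by TMTpro 16plex LC-MS/MS with channel sums equalised. Thermal stability is expressed against control samples, from duplicates, as a log2 fold change.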

[2] = compound: CC1=C(SC2=C1C(=N[C@H](C3=NN=C(N32)C)CC(=O)N)C4=CC=C(C=C4)Cl)C
Summary of the method: as §1

[3] = compound: CC1=C2C(=CC=C1)N=C(N(C2=O)C3=CC=CC=C3C)CN4C=NC5=C(N=CN=C54)N
Summary of the method: as §1

[4] = compound: Cc1sc2c(c1C)C(c1ccc(Cl)cc1)=N[C@@H](CC(=O)OC(C)(C)C)c1nnc(C)n1-2
Summary of the method: as §1

[5] = compound: c1ccc([C@@H]2C[C@H]2NC2CCNCC2)cc1
Summary of the method: as §1

Measured: log2 fold change

EMC7 (UniProt Q9NPA0)
inactive: [1] -0.007 | [2] 0.062 | [3] 0.043 | [4] -0.007 | [5] -0.02

EMC3 (UniProt Q9P0I2)
inactive: [1] -0.003 | [2] 0.06 | [3] 0.038 | [4] -0.037 | [5] -0.029

EHD4 (UniProt Q9H223)
inactive: [1] -0.01 | [2] 0.052 | [3] 0.037 | [4] -0.05 | [5] 0.007

EIF4EBP2 (UniProt Q13542)
inactive: [1] -0.022 | [2] 0.159 | [3] -0.077 | [4] -0.14 | [5] 0.081

ELAC1 (UniProt Q9H777)
inactive: [2] 0.123 | [3] 0.146 | [5] 0.059

ENKD1 (UniProt Q9H0I2)
inactive: [3] 0.163 | [4] -0.128

EI24 (UniProt O14681)
inactive: [1] -0.009 | [2] 0.006 | [3] -0.039 | [4] -0.057 | [5] 0.003

2 neighbouring records from above, quoted:
EHD4 (UniProt Q9H223)
inactive: [1] -0.01 | [2] 0.052 | [3] 0.037 | [4] -0.05 | [5] 0.007

EIF4EBP2 (UniProt Q13542)
inactive: [1] -0.022 | [2] 0.159 | [3] -0.077 | [4] -0.14 | [5] 0.081

Remaining list, next part.

EID1 (UniProt Q9Y6B2)
inactive: [4] -0.135

ELAVL4 (UniProt P26378)
inactive: [1] -0.07 | [2] -0.168 | [4] 0.13 | [5] 0.084

EIF3F (UniProt O00303)
inactive: [1] -0.033 | [2] 0.034 | [3] 0.081 | [4] 0 | [5] -0.027

ELMO1 (UniProt Q92556)
inactive: [1] -0.085 | [3] 0.026

ENTPD7 (UniProt Q9NQZ7)
inactive: [1] 0.066 | [4] 0.173

EIF5A2 (UniProt Q9GZV4)
inactive: [1] -0.098 | [2] 0.053 | [5] -0.083

EEF1D isoform 3 (UniProt P29692)
inactive: [4] -0.694

ENTPD6 (UniProt O75354)
inactive: [1] 0.022 | [2] -0.086 | [4] -0.021 | [5] 0.002

EEF1D isoform 2 (UniProt P29692)
inactive: [1] -0.031 | [2] 0.003 | [3] 0.073 | [4] 0.012 | [5] -0.011

ENTR1 (UniProt Q96C92)
inactive: [3] 0.191

EP400P1 isoform 6 (UniProt Q6ZTU2)
inactive: [4] 0.068

EFR3A (UniProt Q14156)
inactive: [3] 0.12

ENPP3 (UniProt O14638)
inactive: [1] 0.045 | [2] 0.005 | [3] 0.23 | [5] -0.021

ELOVL7 (UniProt A1L3X0)
inactive: [2] 0.077 | [4] -0.066 | [5] -0.01

EPB41 isoform 4 (UniProt P11171)
inactive: [1] 0.016 | [4] 0.04

EIF2AK3 (UniProt Q9NZJ5)
inactive: [1] -0.473 | [2] -0.027 | [4] -0.196 | [5] 0.059

EIF5 (UniProt P55010)
inactive: [1] -0.018 | [2] 0.032 | [3] 0.079 | [4] -0.044 | [5] -0.043

ENAH (UniProt Q8N8S7)
inactive: [3] 0.238

EIF4B (UniProt F8VP89)
inactive: [1] -0.544 | [2] 0.026 | [5] 0.133

EIF4G1 (UniProt Q04637)
inactive: [2] -0.032 | [3] 0.011 | [4] 0.098 | [5] -0.028

EEF2K (UniProt O00418)
inactive: [2] 0.001 | [3] 0.145 | [5] -0.082

ENTPD4 (UniProt Q9Y227)
inactive: [1] -0.033 | [4] 0.039

EHMT1 (UniProt Q9H9B1)
inactive: [1] 0.09 | [2] 0.078 | [3] 0.03 | [4] 0.102 | [5] 0.034

EIF3I (UniProt Q5TFK1)
inactive: [2] 0.08 | [4] -0.056 | [5] -0.018

EML3 (UniProt Q32P44)
inactive: [1] -0.021 | [2] -0.12 | [4] 0.182 | [5] 0.01

EIF4A3 (UniProt P38919)
inactive: [1] -0.008 | [2] 0.083 | [3] 0.036 | [4] 0.02 | [5] -0.022
